# Data: PMC7145593
# The chains behind the UniProt entries cited, without tags or fusion partners.
# UniProt Q8I581: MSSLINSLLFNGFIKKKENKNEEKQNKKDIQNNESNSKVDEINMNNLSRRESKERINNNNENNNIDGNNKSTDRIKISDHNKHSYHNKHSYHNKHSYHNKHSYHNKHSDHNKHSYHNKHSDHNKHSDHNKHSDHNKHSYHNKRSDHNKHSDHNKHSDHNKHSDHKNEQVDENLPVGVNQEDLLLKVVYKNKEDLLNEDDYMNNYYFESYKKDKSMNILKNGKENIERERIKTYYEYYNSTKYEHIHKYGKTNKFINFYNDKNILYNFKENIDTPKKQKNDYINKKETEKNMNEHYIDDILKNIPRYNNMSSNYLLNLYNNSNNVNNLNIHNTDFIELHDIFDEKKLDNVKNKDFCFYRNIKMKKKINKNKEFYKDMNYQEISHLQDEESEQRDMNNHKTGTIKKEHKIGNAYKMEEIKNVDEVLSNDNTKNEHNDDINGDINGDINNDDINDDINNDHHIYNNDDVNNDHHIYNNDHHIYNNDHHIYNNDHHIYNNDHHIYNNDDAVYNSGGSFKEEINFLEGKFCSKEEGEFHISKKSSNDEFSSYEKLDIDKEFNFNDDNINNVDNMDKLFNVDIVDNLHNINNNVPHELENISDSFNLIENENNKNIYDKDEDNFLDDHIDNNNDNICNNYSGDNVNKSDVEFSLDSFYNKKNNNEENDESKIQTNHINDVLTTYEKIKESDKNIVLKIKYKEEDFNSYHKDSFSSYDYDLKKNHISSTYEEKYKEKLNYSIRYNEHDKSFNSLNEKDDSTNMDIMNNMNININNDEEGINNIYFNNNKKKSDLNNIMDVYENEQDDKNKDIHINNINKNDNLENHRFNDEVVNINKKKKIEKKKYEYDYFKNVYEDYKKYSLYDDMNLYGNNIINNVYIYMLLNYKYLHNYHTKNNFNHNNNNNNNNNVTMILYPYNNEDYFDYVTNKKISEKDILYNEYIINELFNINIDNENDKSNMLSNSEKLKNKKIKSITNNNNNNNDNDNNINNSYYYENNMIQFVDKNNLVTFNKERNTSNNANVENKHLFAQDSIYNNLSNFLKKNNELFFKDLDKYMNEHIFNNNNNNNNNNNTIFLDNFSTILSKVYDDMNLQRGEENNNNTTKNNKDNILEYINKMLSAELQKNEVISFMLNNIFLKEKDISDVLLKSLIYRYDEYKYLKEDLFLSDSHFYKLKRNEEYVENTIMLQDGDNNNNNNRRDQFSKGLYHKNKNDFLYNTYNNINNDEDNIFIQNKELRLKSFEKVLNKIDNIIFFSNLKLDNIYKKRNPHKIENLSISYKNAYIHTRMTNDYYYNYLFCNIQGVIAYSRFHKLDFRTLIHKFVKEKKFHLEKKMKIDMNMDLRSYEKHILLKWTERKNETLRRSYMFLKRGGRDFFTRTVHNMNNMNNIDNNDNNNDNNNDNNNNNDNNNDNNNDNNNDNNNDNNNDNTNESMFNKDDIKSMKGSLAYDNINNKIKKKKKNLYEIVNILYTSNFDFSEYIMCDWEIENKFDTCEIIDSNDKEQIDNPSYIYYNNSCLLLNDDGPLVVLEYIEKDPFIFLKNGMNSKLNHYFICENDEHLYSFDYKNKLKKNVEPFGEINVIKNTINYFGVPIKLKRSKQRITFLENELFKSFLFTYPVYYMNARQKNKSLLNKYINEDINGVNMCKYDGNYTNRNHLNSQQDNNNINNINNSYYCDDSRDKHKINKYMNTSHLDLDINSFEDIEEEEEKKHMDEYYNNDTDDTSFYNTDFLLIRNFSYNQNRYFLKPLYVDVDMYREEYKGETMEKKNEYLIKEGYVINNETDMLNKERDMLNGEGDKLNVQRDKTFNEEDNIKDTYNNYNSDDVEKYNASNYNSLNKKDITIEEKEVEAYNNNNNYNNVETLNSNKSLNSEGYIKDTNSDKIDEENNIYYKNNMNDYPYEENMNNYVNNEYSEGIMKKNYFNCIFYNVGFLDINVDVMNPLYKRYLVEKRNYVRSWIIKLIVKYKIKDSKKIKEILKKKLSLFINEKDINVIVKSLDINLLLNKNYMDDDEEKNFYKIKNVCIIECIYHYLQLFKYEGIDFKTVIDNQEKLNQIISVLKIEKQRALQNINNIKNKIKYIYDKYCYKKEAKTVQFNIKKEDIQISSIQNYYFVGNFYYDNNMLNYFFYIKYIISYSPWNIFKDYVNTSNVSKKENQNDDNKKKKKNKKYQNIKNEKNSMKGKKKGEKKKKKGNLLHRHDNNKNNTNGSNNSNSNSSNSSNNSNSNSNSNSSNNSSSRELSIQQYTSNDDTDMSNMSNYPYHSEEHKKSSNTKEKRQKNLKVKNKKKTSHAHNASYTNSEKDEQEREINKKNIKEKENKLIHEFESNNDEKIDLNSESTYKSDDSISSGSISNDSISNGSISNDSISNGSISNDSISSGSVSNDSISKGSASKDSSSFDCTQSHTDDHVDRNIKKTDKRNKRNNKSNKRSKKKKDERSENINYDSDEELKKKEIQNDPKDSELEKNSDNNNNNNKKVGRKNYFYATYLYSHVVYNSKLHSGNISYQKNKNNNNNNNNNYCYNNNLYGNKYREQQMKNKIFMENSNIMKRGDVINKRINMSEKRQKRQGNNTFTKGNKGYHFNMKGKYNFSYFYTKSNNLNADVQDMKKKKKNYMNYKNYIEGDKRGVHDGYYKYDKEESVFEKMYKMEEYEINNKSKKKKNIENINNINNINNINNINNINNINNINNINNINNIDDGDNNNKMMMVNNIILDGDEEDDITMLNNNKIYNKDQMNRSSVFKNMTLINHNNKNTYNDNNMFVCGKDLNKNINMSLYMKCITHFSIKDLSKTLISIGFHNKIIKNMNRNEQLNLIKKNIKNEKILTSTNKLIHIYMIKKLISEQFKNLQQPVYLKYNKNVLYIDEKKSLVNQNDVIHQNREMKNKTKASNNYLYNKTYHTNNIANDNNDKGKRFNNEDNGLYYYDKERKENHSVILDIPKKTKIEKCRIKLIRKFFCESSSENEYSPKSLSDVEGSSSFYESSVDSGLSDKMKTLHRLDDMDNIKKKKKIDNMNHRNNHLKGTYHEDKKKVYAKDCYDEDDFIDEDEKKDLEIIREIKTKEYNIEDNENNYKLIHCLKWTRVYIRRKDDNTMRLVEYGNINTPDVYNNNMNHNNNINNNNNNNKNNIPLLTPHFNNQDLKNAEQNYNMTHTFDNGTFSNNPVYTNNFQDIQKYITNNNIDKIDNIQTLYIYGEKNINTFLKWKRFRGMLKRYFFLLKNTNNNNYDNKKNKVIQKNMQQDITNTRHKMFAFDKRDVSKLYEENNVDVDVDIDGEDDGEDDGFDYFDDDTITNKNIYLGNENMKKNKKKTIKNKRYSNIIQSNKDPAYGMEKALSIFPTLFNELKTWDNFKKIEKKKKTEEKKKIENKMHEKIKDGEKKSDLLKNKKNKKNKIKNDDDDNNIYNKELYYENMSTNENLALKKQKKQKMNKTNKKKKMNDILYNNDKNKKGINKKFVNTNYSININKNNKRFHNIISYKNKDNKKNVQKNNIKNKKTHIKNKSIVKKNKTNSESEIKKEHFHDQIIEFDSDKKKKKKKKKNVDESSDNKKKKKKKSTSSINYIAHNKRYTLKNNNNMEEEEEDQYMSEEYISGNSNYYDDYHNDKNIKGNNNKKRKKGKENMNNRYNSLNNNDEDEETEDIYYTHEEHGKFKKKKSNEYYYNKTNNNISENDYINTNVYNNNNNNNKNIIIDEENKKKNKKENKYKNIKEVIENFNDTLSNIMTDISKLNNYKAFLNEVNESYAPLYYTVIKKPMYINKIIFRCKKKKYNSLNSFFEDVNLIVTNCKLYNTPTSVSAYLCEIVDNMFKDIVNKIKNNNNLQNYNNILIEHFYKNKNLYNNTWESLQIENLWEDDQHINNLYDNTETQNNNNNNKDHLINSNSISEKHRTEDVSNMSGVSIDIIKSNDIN
# No constants are given. Whether binding was seen depends on the method and setting. Binding seen in cells or lysates may run through a third protein. These calls come from enrichment with a bait or labelling near it, and not all partners need be listed. No binding means not detected with the bait.
# B1: PF3D7_0824800 (protein, UniProt Q8IB82 1-1276)
# chain: MMNKFYYSFKNKENENDATDKIKENIFMKDNNNYDYNENSYDKNSMYDDNKIIRKRSRKKKGEQDENMASKNIERKSSFNSFHLDNENVNKDYYYENYDMDDNKYDKNGNVNYDNYNKNDDLLYNKNDDMLYNKNDDIYNNKNKNDSSNYNNGNSLINPEFIKNIGICYNIINDETKFENDTCFKKISDIIELRITQIIEEANKFYEKRKRYTINKYLSIEDLTNCCNYLNVVIPYKYKNSFFYNFITLNENYKNNKIIYRLISKKEYPDYLKKRHSRKTYEKRKKKLYHMQMKKEKIKNMQNKNVKEKNINKKHNKYNKHNKLNKYTKKNKHKFKHSSKHMFKMIHNNFIGNEKKGTNNRTNLYNESYHTKKHKNKYTTHKNKINKHSKKNKKEHIKKDTEVDQINNKESDITNHDKFNMFSENEKHDSPKEEQDELIKLDMNLSDNLDVNLSDNIDINLDNELDEYFDEFLEGQGQEEKYSEEKNQDLLDDDIFNFSDDDNKEESKEKYFDNKNKSSEYNNNNNNNNNNNNEDNNEDNNENNIDNDNDNNNNIDLDLSSLDFNNNDKNSIIIENDQLNDEDIFSEDLMNNNIKREENIIKSDEYNKLDMSNLKGNENMNEKNFITPYHENNNDNLSDTLQDERSIKSDINMNIDNNILYNSYIKNNENKKKNVLKMLLCGMENNLPAETNITIFWLFVQNGYREKRKKKKKKNDKEKDKDQNNNYNDPGDEIHFNFDENEKREDKNVAAYFNYQCHEILYTIEKKKRYKNYIGKQNVLNEHENFKYNNIFLLPKFYPINKEYAILSKYILEIIKDIINYRINFFDYNNILHIFSTSKQINKILTNILFFLFNELDHNLRLNNIYASLMLLILLNGIIKNNNIDIDFYCLQILKMLIHVIIYEHELRLKNIYIILLLKRKACDIIIDFCSVLKKQNNNEIINIDYYLIYILSKLLTHNKCTYMHIYVSYYLIYLMPINIHIKFFLSYTPNFLTIFFKKYIYYQNVYSSFSSYDQKELNELFNFFFFHIYTLIQGSIYRIFKNINLLIINSASCNYLNYLFNFIINYADYHLPLILCILNVIDKNYSPHKNDPIYHLQQKRKNSKKRRLKKIKKIMMKRMKININKRRTKKKKKLKRNKKNNNKYLIKSKNYLKSVKDITKFYLNKKPNSDNGDDSYYEDDYLNPESFNSNIFGYNNYSKKQYFNSYIKKRISLNKPLIQHSKEKNELRTNIAVNNVLNKILNKFEKRRKKKKHKTKNHQYDAYLYDTCYYFLYTF
# B2: PF3D7_1032700 (protein, UniProt Q8IJ80 1-553)
# chain: MKSRNNIHHHKKKNEVNNTLEEYKDIIPDIEIQIENLLKKFHITKYDYKITHFLIDIIQNESLKILKNAKHIKKNIYYNNYNDKDDNINYYNINDEHINNNENNDNIYNVKENAHINHDTLYEEKYIQKEEGTINHINNNTDMENINENNSPNKCSSHMLNDLLNNFNEDSAIEKNSHIDVVNNMEDEKVNINDAEKIDNEKINDEKNDAEQINDEKNDDEKNDDEKNDDEKNDAEQINDEKNDDEKNDDEKNDDEKNDDEKINDEKNDDEKNDDEKNDDEKNDDEKIDAEQINDEQINAEQINDEQINDEQINDEKINDEQINDEKINDEQINDEKINDEQINDEKINDEQINDEKINDEQINDEKINDEQINDEQINDEQINDDNISNKPELSLSDIFNTIECTSNNIQEQENKDELINKDIPSNNKTDNKENNHIPKNNPLNCNDNNQKNLQNIGNNKNKIRDEVLIIDEESVNLAIKEYVLKTIYRKKNVDFLYEKLEFQQKDNLMVNRNIKYPSGLPPYLPDDCSVNTILPSWDIKYNFNSSKRKIKK
# B3: PF3D7_1251800 (protein, UniProt Q8I4R6 1-655)
# chain: MYGFFFNKNEENKLTKNKSSLENCSDHNINNNDINNNDVNNNDINNNDINNNDINNDDNPNNENNKLNLSVDKEKEESNVNIKNKNNDQTFISNIDNINNMNNMNNIKSEIILKSDKFILNSYDNIIEEKKNLINECSENIVYKKDNDIHINNNTYNNLSIQNYANYLHKDEKKKKDISSNNMNVSNSKNDVKKKNNDTIIQENMNKLSNNISTNNKEKERKNNHKRSDNINIDLFFSSDNSVELSDENSSLDTMEELCENIEDSDVSINFYKNMLSSKNNINDNINNEQSILNNNNPSEEINILNNYIKNITNAYQNHSISSIDLDNKLLNILSLSFLTFVDNVIYDSHIYAQTKTYLDTTKMKLKKKHERNQTNQMCPQLNVTTQHGNNKKNDIMKESVQVFNNKNVDFLNIDMDKKDTQGQKEIIKINNNDDNNDNNNNNNNNNNNNNNNNNNNDDDDNKSYEYFHHIKEKPPDITFNPDVINMCLNNLYNEQLVNKLIHKRKKKGKGKDKGKDKTEENHMNDTKNNSKNNSKKNNNNNNHNDNTNYSSSNDEDDVLRLLSYNSLFNKKTNQDLTYQQNDSTNKNIKVTNNINDEKSIDEINKSLQHNIYNKLNKRKIMINQINHEIKKKNNNYVNTSTNKKPYSLEDIFEI
# B4: TBP homologue PF3D7_0506200 (protein, UniProt Q8I440 1-327)
# chain: MHKEEKEKDKKKDNNYDNDYHNDYHNDYHNDYHNDYDNENDCNNNEREGSVHGDNIHAYEEQNYENDILNIINKQMDNIKSNDPIKNNSNNSYNNNFLDMNFLEQDQLFLENINQDNVVSAHYTSEYDNNEKEKSDDLKNKLVHKNISLNIHNIISSANLCIDINLRLVAVSIRNAEYNPSKINTLIIRLNKPQCTALIFKNGRIMLTGTRTKKDSIMGCKKIAKIIKIVTKDKVKFCNFKIENIIASANCNIPIRLEVLAHDHKEYCNYEPELFAGLVYRYKPTSNLKSVILIFVSGKIIITGCKSVNKLYTVFQDIYNVLIQYKN
# B5: PF3D7_0514900 (protein, UniProt Q8I3V9 1-438)
# chain: MKKGQVIMNEEKCNEITKHYGNPFINTKEDYLHEKIEKIICSILLSRNIKKANYLVFDILFDVFMKIIKTIGYHCKKFSSLRGSHVVNYIDIKYCLKLAFYNIYNEIYILKDYSKLYKDIIYYHIYDEEDNKENNNNNKKNEYNNNQHNNNDENNNNEHNNNKFIGDNNQEHVGKDDECYNKNEENNFRKNTSSMMIIKEKENYINVVQNSYLYYKHLCTKKNNNTHDLIKNFNSINNLFTNEFNNKNIQDGNLSNNECVNILSLRENVNVEKYKEIMMLKKNYIHDHMPIIPLSINRKEKITGYINEKDNYAYDHIQSQSNNLLNNDEHILHSSSSSSSSSSSSSSLSDDSHVNEKKLNDSSNKNYNYLNTSNDHSNLSQRMLYEHTKENISKEKIEILNLLPRLKDIYVQNAKQKNDLNKSENQVFNSLNIFEQFD
# Target: TAF1/BDP5-AID-GFP (P. falciparum (endogenous in 3D7 parasites)) (UniProt Q8I581)
# Assay: affinity purification with mass spectrometry; GFP-Trap or HA-antibody bead pulldown against control beads from nuclear extract of parasite lines with the bait endogenously tagged; dimethyl labelling, label swap; FDR < 10% in at least two reactions
row,Binder,binding
1,B1,binds
2,B2,binds
3,B3,binds
4,B4,no binding
5,B5,binds
